We go through one molecule from paper PMC12381156.

No constants are given. Whether binding was seen depends on the method and setting. Tags and fused reporters may be left off the sequences shown.

In the assay the target is T1, G protein-coupled bile acid receptor 1 (GPBAR1), full-length human, with N-terminal FLAG and BRIL (human), Q8TDU6.
T1 chain: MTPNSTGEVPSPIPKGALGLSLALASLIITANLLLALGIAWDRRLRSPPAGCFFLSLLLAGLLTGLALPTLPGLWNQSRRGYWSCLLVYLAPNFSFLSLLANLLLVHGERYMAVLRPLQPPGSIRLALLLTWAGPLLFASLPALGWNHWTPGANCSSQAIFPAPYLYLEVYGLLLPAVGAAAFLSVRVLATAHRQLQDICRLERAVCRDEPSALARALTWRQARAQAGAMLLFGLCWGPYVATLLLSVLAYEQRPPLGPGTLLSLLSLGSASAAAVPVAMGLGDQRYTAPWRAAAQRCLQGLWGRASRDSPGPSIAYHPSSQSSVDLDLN
The experiment in a line: mass photometry; samples in 20 mM HEPES, 150 mM NaCl, 0.02%/0.002% LMNG/CHS, drop-diluted in PBS to 10 nM (apo-GPBAR1) and 30 nM (GPBAR1/Gs complex with P395 and Nb35); room temperature (18 °C); both purified. To be noted: remark: other sources report otherwise.

B1: G protein-coupled bile acid receptor 1 (GPBAR1), full-length human, with N-terminal FLAG and BRIL, Q8TDU6 1-330 (receptor)
chain: MTPNSTGEVPSPIPKGALGLSLALASLIITANLLLALGIAWDRRLRSPPAGCFFLSLLLAGLLTGLALPTLPGLWNQSRRGYWSCLLVYLAPNFSFLSLLANLLLVHGERYMAVLRPLQPPGSIRLALLLTWAGPLLFASLPALGWNHWTPGANCSSQAIFPAPYLYLEVYGLLLPAVGAAAFLSVRVLATAHRQLQDICRLERAVCRDEPSALARALTWRQARAQAGAMLLFGLCWGPYVATLLLSVLAYEQRPPLGPGTLLSLLSLGSASAAAVPVAMGLGDQRYTAPWRAAAQRCLQGLWGRASRDSPGPSIAYHPSSQSSVDLDLN
As to B1, the binding entry is reported as “no binding (tested: 10 nM)”.
